The record followed here is publication PMC4390099.

Amino acid sequences for entries named in this document (tags omitted).
UniProt P31146: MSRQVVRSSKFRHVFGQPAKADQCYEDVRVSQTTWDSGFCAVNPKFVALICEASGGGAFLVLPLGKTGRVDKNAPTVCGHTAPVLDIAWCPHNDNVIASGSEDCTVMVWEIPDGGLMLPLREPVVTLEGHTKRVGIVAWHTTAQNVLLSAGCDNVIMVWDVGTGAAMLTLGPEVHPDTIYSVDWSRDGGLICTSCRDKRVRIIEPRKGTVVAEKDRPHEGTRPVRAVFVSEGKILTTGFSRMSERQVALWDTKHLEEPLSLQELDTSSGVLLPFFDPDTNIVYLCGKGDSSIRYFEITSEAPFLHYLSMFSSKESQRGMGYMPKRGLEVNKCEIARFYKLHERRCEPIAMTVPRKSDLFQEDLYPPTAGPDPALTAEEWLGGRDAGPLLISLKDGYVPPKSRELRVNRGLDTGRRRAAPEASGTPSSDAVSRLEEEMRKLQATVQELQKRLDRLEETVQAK
UniProt Q02111: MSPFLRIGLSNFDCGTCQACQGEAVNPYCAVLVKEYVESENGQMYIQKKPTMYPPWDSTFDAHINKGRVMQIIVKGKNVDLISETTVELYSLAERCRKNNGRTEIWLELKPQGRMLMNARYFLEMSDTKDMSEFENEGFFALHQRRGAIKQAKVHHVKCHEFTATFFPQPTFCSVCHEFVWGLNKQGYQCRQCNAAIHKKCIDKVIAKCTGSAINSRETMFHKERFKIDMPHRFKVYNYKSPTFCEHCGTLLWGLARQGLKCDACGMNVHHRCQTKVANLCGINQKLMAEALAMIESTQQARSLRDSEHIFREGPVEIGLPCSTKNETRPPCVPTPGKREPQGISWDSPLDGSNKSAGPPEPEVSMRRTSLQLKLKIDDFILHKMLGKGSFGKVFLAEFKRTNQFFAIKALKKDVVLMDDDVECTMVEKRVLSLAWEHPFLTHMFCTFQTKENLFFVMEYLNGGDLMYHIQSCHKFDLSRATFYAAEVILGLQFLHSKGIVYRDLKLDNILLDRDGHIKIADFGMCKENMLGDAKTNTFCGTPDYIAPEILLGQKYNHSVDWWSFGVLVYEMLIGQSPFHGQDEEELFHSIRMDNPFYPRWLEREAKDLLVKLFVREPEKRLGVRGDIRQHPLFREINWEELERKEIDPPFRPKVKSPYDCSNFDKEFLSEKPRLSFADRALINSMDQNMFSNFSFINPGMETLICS

These are yes or no findings as the source states them, for the method shown. In cells and extracts the contact can be indirect. Some entries that bind do so weakly or less than the wild type.

The target in this assay is GST-Coro1A (UniProt P31146). Kind of assay: pull-down; GST-Coro1A pull-down of endogenous PKCθ from mouse CD3+ T cells; seen both with and without CD3/CD28 stimulation; only the target purified.

As to “PKCθ, endogenous in mouse CD3+ T cells (from UniProt Q02111 1-707) (enzyme)”, the binding result was “binds”.
